# In publication PMC10442425:
# Chains of the proteins cited; added tags and fusions are not shown.
# UniProt P0DTC4: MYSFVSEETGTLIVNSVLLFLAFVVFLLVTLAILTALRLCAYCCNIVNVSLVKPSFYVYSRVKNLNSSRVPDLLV
# UniProt P16671: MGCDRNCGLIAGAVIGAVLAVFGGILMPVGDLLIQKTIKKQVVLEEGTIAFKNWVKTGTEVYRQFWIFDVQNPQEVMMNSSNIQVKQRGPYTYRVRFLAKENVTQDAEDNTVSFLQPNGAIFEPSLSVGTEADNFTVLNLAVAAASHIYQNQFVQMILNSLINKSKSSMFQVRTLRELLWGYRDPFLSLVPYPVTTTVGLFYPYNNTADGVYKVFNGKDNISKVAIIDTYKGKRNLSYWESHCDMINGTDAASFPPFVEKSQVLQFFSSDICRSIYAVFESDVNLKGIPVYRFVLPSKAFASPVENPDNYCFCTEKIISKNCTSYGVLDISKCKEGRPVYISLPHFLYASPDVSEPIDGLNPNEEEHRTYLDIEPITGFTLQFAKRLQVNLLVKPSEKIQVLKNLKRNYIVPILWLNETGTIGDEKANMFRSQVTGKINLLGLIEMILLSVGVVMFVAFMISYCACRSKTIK
# Results are given in words; binding and its absence hold for the method and conditions named. Binding seen in cells or lysates may run through a third protein. A yes stands for co-enrichment or nearness to the bait. Other partners may have been found.
# Target: recombinant SARS-CoV-2 envelope (E) protein, His-tagged (SARS-CoV-2) (UniProt P0DTC4)
# Assay: affinity purification with mass spectrometry; only the target purified
substance,measurement,value
CD36 of human platelets (from UniProt P16671 1-472) (receptor),binding,binds
